Source: PubChem BioAssay AID624297 (National Center for Advancing Translational Sciences (NCATS), 2012)
The campaign covered roughly 340,000 compounds. About 6,200 (1.8%) were called active. This list was built around the results that the source calls inconclusive (neither active nor inactive); the mix of calls is not that of the screen. Calls come from the whole dose curve; as a rule, active = well fitted activation curve with a large enough effect; inconclusive = small, poorly fitted or top-dose-only effect; inactive = no such curve, though single readings can be large or run the other way. Potencies beside an inconclusive call are fits to weak or partial responses and may not hold up.

Assay: A quantitative high throughput screen for small molecules that induce DNA re-replication in SW480 colon adenocarcinoma cells. For re-replication activation: % of control where 0% means no effect. Note: nearly all actives have a fitted effect of over 55% in size.
Details: Hoechst DNA content imaging, 48 h; re-replication activation: at 46.1 µM (top of the series)
Procedure, shortened: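 Image-based read-out: total Hoechst fluorescence of nuclei (405 nm excitation, 500-530 nm emission), with hits raising the fraction of high-intensity nuclei. SW480 colon cells incubated 48 hr with compounds at 37 C.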
Potency is the fitted concentration of half-maximal effect.

SMILES	re-replication activation	Potency
Cc1ccc(S(=O)(=O)NCC(c2ccccc2)N2CCN(CCC#N)CC2)cc1 (centres undefined)	inactive: 3.04%	
CCOc1ccc(S(=O)(=O)N2CCN(Cc3ccc4c(c3)OCO4)CC2)cc1Cl		inconclusive: 32.6 µM [activator, partial curve, poor fit]
N#Cc1cc(-c2ccccc2)nc(NN)n1		inconclusive: 23.1 µM [activator, single point]
COc1ccc(Cl)cc1NC(=O)CN(C)C(=O)c1cn(-c2ccccc2)nc1-c1cccnc1		inconclusive: 29.1 µM [activator, single point]
O=C1NC[C@@H](Cc2cccc3ccccc23)N(CCc2cc(C(F)(F)F)cc(C(F)(F)F)c2)C1=O	inactive: -0.464%	
Cc1ccc(-c2nn(-c3ccccc3)cc2CSC(=N)N)cc1		inconclusive: 29.1 µM [activator, single point]
COc1cccc2c1C(=O)c1c(O)c3c(c(O)c1C2=O)CC(O)(C(C)=O)CC3OC1CC(N(C)C)C(O)C(C)O1 (centres undefined)		inconclusive: 29.1 µM [activator, single point]
S=C(NCc1ccc(Cl)cc1)Nc1ccncc1		inconclusive: 1.16 µM [activator, full curve, poor fit]
N#CC1=C(N)C(C#N)(C#N)C(c2cccnc2)C2CC(c3ccccc3)CC=C12 (centres undefined)	inactive: 10.6%	
CCOC(=O)N1CCN(C(=O)CCSc2ccc(C)cc2)CC1		inconclusive: 29.1 µM [activator, single point]
O=C(COC(=O)Cc1ccsc1)NCc1ccc(Cl)cc1		inconclusive: 3.66 µM [activator, full curve, poor fit]
Cc1cc(C)c(S(=O)(=O)N2CCOC2CNC(=O)C(=O)NCCc2c[nH]c3ccccc23)c(C)c1 (centres undefined)		inconclusive: 20.6 µM [activator, single point]
O=C(c1cc(C2CC2)nn1-c1ccccc1)N1CCN(c2ccc(O)cc2)CC1		inconclusive: 32.6 µM [activator, partial curve, poor fit]
CCCc1nn(C)c(C(=O)Nc2ccc(C(C)(C)C)cc2)c1Cl		inconclusive: 18.4 µM [activator, partial curve, poor fit]
CCOCCn1c(=NC(=O)/C=C/c2ccccc2Cl)sc2cc(NC(C)=O)ccc21		inconclusive: 6.51 µM [activator, single point]
Nc1ccc(-c2nc3ccc(N)cc3s2)cc1		inconclusive: 16.4 µM [activator, partial curve, poor fit]
Cc1cc(NC(=O)CSc2nncn2-c2ccccc2)no1		inconclusive: 6.51 µM [activator, single point]
CCN1CCN(S(=O)(=O)c2cc3c(cc2Cl)NC(=O)CO3)CC1	inactive: -15.1%	
COCCNC(=S)N/N=C(\C)c1cccc([N+](=O)[O-])c1	inactive: -0.953%	
COc1ccc(C(=O)c2cccc(C(=O)c3ccc(OC)c(C)c3)c2)cc1C		inconclusive: 3.16 µM [activator, partial curve, poor fit]
NNC(=O)c1ccccc1OCCOc1ccccc1		inconclusive: 29.1 µM [activator, single point]
CC(=O)c1ccc2cccc3c2c1N=CN3C		inconclusive: 1.84 µM [activator, single point]
C=CCN1C(=O)C(CC(=O)Nc2ccccc2)S/C1=N/c1nccs1 (centres undefined)		inconclusive: 20.6 µM [activator, partial curve, poor fit]

Given field by field: entries from further up
O=C(COC(=O)Cc1ccsc1)NCc1ccc(Cl)cc1
  Potency: inconclusive: 3.66 µM [activator, full curve, poor fit]
Cc1cc(C)c(S(=O)(=O)N2CCOC2CNC(=O)C(=O)NCCc2c[nH]c3ccccc23)c(C)c1 (centres undefined)
  Potency: inconclusive: 20.6 µM [activator, single point]
O=C(c1cc(C2CC2)nn1-c1ccccc1)N1CCN(c2ccc(O)cc2)CC1
  Potency: inconclusive: 32.6 µM [activator, partial curve, poor fit]
CCCc1nn(C)c(C(=O)Nc2ccc(C(C)(C)C)cc2)c1Cl
  Potency: inconclusive: 18.4 µM [activator, partial curve, poor fit]

Later entries:

SMILES	re-replication activation	Potency
O=C(NNc1nc(=O)c2cccnc2s1)c1ccccc1O		active: 0.92 µM
Cc1c(CN2CCCC(C(=O)Nc3cccc(-n4cccn4)c3)C2)cnn1C (centres undefined)	inconclusive: 85.1% [activator]	
CCC(C)NC(=O)Cn1c(COc2ccc(Cl)cc2Cl)nc2ccccc21 (centres undefined)		inconclusive: 32.6 µM [activator, partial curve, poor fit]
CCC1CCCCN1S(=O)(=O)c1ccc(C(=O)Nc2nnc(-c3cccs3)o2)cc1 (centres undefined)		inconclusive: 8.91 µM [activator, partial curve]
O=C(NC12CC3CC(CC(C3)C1)C2)c1ccc([N+](=O)[O-])o1		inconclusive: 0.259 µM [activator, full curve, poor fit]
COC(=O)c1ccccc1NC(=O)COc1ccc(S(=O)(=O)N2CCCC2)cc1C		inconclusive: 23.1 µM [activator, partial curve, poor fit]
CC1Cc2ccccc2N1CC(=O)NC(c1ccccc1)c1ccccc1 (centres undefined)		inconclusive: 23.1 µM [activator, single point]
Cc1cccc(C=CC(=O)c2ccc(Cl)cc2)c1		inconclusive: 20.6 µM [activator, single point]
O=C(NCCN1CCOCC1)c1csc2c1CCCCC2		inconclusive: 29.1 µM [activator, single point]
N#CC1=C(SCC(=O)c2ccc(Br)cc2)NC2=C(C(=O)CCC2)C1c1ccco1 (centres undefined)		active: 12.6 µM
O=C(COC(=O)C1=COCCO1)Nc1ccc(Br)cc1Br	inactive: -4.99%	
CCC/C=N/Nc1nc2ccccc2s1		inconclusive: 23.1 µM [activator, single point]
CCN(CC)C(=O)C1CCN(Cc2ccc(OCc3ccccc3)cc2)CC1		inconclusive: 18.4 µM [activator, single point]
O=C(O)CCCC(=O)Nc1ccc(C(=O)N2CCCCC2)c(Cl)c1	inactive: 0.323%	
COC(=O)c1ccccc1NC(=O)CN1CCC(NC(=O)c2ccc(C)cc2)CC1	inactive: 4.13%	
COCCCNC(=O)CSc1nc2ccccc2c(=O)n1CCCN1CCCCC1	inactive: -13.9%	
COc1ccc(CCN2C(=S)N(C)C(=O)C2CC(=O)Nc2ccc(F)cc2)cc1 (centres undefined)		inconclusive: 1.84 µM [activator, full curve, poor fit]
Cc1ccccc1Nc1scc(-c2ccc(Cl)cc2)[n+]1-c1ccccc1C	inactive: -7.96%	
O=C(Nc1ccc2ncccc2c1)c1cccc(Br)c1	inactive: -76.3%	
Cc1cccc(C(=O)NCCNc2nc3cc(C)c(C)cc3cc2C)c1		inconclusive: 29.1 µM [activator, single point]
COc1ccccc1N1CCN(CCOc2c(OC)cccc2OC)CC1	inactive: -0.559%	
Cn1c(N)c(C(=O)COC(=O)CCC(=O)c2cccs2)c(=O)n(C)c1=O	inactive: -8.89%	
O=C(Nc1ccc(C(=O)OC2CCCCC2)cc1)c1ccncc1	inactive: 4.2%	

SMILES	re-replication activation	Potency
CCCc1cc(-n2ccnc2)n2c(nc3ccccc32)c1C#N		inconclusive: 29.1 µM [activator, single point]
C=C(C)CSc1nc2sc3c(c2c(=O)n1C1CCCCC1)CCN(C)C3		inconclusive: 25.9 µM [activator, single point]
Cc1ccc(-n2cc(CNC(C)c3cnn(C)c3)c(-c3ccc(F)cc3)n2)cc1 (centres undefined)		inconclusive: 29.1 µM [activator, single point]
CCOc1ccc(CNC(=O)Nc2ccccc2)cc1	inactive: -3.05%	
OCC1(Cc2ccc(F)cc2)CCCN(CCCC(F)(F)F)C1 (centres undefined)		inconclusive: 14.6 µM [activator, single point]
Cn1c(=O)c2c(SCC(=O)N3CCCCC3)nc(-c3ccccc3F)nc2n(C)c1=O		inconclusive: 29.1 µM [activator, single point]
C/C(=N/NC(=O)c1cc(-c2cccc([N+](=O)[O-])c2)n[nH]1)c1ccc(Cl)cc1		inconclusive: 8.2 µM [activator, partial curve, poor fit]
O=C(/C=C/C=C/c1ccccc1)c1ccco1		inconclusive: 14.6 µM [activator, partial curve]
COc1ccc2oc(C(=O)OCC(=O)N3CCN(c4ccccc4)CC3)c(C)c2c1		inconclusive: 20.6 µM [activator, single point]
CC(C)Nc1nnc(SCC(=O)Nc2ccc3c(c2)C(=O)c2ccccc2C3=O)s1	inactive: -43.9%	
O=C(NCCc1ccccc1)C1CCN(C(=O)c2sccc2-n2cccc2)CC1	inactive: -14.7%	
CCn1nc(NC(=O)COC)c2cc3cccc(C)c3nc21		inconclusive: 23.1 µM [activator, single point]
COc1ccc(C(=O)C2CCN(C(=S)Nc3ccc(F)cc3)CC2)cc1		inconclusive: 5.8 µM [activator, partial curve, poor fit]
Cn1c(=O)[nH]c(=O)c2c1ncn2CCN1CCOCC1		inconclusive: 0.092 µM [activator, full curve, poor fit]
O=C(Cn1c(-c2ccccc2)c[n+]2ccsc12)c1ccc(Br)cc1		inconclusive: 29.1 µM [activator, single point]
COc1cc(NC(=O)c2ccc(Cl)cc2Cl)ccc1-c1cc2ccccc2oc1=O		inconclusive: 9.2 µM [activator, partial curve, poor fit]
CCN1CCN(c2ccc(S(=O)(=O)N3CCOCC3)cc2NC(=O)c2sccc2C)CC1	inactive: 1.65%	
Clc1ccc2oc(-c3cccnc3NCc3ccccc3)nc2c1		inconclusive: 7.31 µM [activator, single point]
CCOC(=O)C1CCN(S(=O)(=O)Cc2ccc(Cl)cc2)CC1		inconclusive: 29.1 µM [activator, single point]
COC(=O)c1ccc(CN2CCCC(C(=O)Nc3ccc(-c4ccn[nH]4)cc3)C2)cc1 (centres undefined)	inactive: 0.433%	
COc1ccc(C(=O)Nc2cc(-c3ccccc3)nn2-c2ccccc2F)cc1	inactive: 5.35%	
COc1ccc(S(=O)(=O)N2CCN(CCc3ccccc3)CC2)cc1		inconclusive: 20.6 µM [activator, single point]
COc1ccc(C(=O)Nc2ncccc2C)cc1S(=O)(=O)N1CCOCC1	inactive: -3.03%	
